Test results from PubChem BioAssay AID540276 (National Center for Advancing Translational Sciences (NCATS), 2011).
Out of some 300,000 compounds screened, about 5,400 (1.8%) were called active. Inconclusive means that the source gave no clear call. Such entries were picked first, then a sample of the others. Calls come from the whole dose curve; tested in HEK293 cells. Potencies of inconclusive entries are doubtful fits and often do not repeat.

Assay: qHTS for inhibitors of binding or entry into cells for Marburg Virus
Conditions: Marburg virus pseudotyped entry inhibition, cell reporter; activity change, negative = inhibition: at 37.8 µM (top of the series) unless noted
% is set by controls: 0 for no effect and ±100 for the full control effect; potency is the fitted concentration of half-maximal effect.

Compound | Potency | activity change, negative = inhibition
CCS/C(N)=N/N=C/c1cc(C)ccc1O | inconclusive: 35.5 µM [inhibitor, single point] | –
O=C(O)CCCC(=O)N(Cc1ccccc1)Cc1ccccc1 | inconclusive: 13 µM [activator, partial curve, poor fit] | –
Cc1ccccc1C(=O)Nc1ccccc1N1CCCCC1 | inconclusive: 28.2 µM [inhibitor, single point] | –
O=C(/C=C/c1ccc(F)cc1)N1CCN(c2ccccn2)CC1 | – | inactive: 19.4%
Cc1ccc(/C=N/NC(=O)CC2N=C(Cc3ccccc3)NNC2=O)cc1 (configuration not stated) | – | inactive: 2.35%
COCCN(Cc1cc2cc(C)ccc2nc1Cl)C(=O)Nc1ccccc1C | – | inactive: -15.5%
Cc1ccccc1OCCN1C(=O)NC2(CCc3ccccc32)C1=O (configuration not stated) | – | inactive: -9.7%
O=C(Nc1ccccc1)c1cccc(N2C(=O)C3C4C=CC(C4)C3C2=O)c1 (configuration not stated) | inconclusive: 1.26 µM [inhibitor, single point] | –
CCC1CCCCN1C(=O)c1cc2c(=O)n3cccc(C)c3nc2s1 (configuration not stated) | inconclusive: 35.5 µM [activator, single point] | –
CCOC(=O)c1sc(NC(=O)c2nc3nc(C)cc(C(F)F)n3n2)c(C(=O)OC(C)C)c1C | inconclusive: 12.6 µM [activator, partial curve, poor fit] | –
COc1ccc(C(=O)NNC(=O)CSc2nnc(C(C)C)n2C)cc1 | – | inactive: -21.1%
O=C(COC(=O)CNC(=O)c1ccccc1F)Nc1ccc2c(c1)OCO2 | inconclusive: 0.316 µM [inhibitor, partial curve, poor fit] | –
CCOc1ccc(S(=O)(=O)N2CCC(C(=O)NCc3cccnc3)CC2)cc1 | – | inactive: -12.9%
CCOc1ccccc1N1CN(Cc2ccccc2)CNC1=S | inconclusive: 35.5 µM [inhibitor, single point] | –
COc1ccc(NS(=O)(=O)c2cccc3nsnc23)cc1Cl | inconclusive: 0.631 µM [inhibitor, full curve, poor fit] | –
COc1ccccc1-c1ccc(Nc2ccc(C(=O)N3CCOCC3)cc2)nn1 | – | inactive: -2.05%
CC(Cn1cncn1)C(=O)N1CCN(S(=O)(=O)c2ccccc2)CC1 (configuration not stated) | inconclusive: 5.62 µM [inhibitor, single point] | –
CCOC(=O)c1csc(NC(=O)c2ccc(OCC)cc2)n1 | inconclusive: 7.08 µM [inhibitor, partial curve] | –
CN(C)S(=O)(=O)c1ccc(NC(=O)Cn2nc(-c3ccc4c(c3)OCCO4)ccc2=O)cc1 | – | inactive: 0.975% [at 46.1 µM]
CCc1cc(C(=O)Nc2ccc(OC)nc2)sc1C | inconclusive: 5.01 µM [activator, full curve, poor fit] | –
COC(=O)c1ccc(CN(c2ccccc2Cl)S(C)(=O)=O)cc1 | inconclusive: 0.562 µM [inhibitor, full curve, poor fit] | –
O=C(C1CCC(Cn2c(=S)[nH]c3ccccc3c2=O)CC1)N1CCN(c2ccccn2)CC1 (configuration not stated) | – | inactive: -7.28% [at 46.1 µM]
CCCC[n+]1ccn(C2=C([O-])c3ccccc3C(=O)/C2=N\S(=O)(=O)c2ccccc2)c1 | inconclusive: 12.6 µM [inhibitor, partial curve, poor fit] | –
CC1(C)CC(=O)C2=C(C1)N(CCN1CCOCC1)C1=C(C(=O)CC(C)(C)C1)C2c1ccc(Cl)c([N+](=O)[O-])c1 | inconclusive: 2.24 µM [inhibitor, full curve, poor fit] | –

As a short view, some entries already given:
Compound | Potency | activity change, negative = inhibition
O=C(/C=C/c1ccc(F)cc1)N1CCN(c2ccccn2)CC1 | – | inactive: 19.4%
Cc1ccc(/C=N/NC(=O)CC2N=C(Cc3ccccc3)NNC2=O)cc1 (configuration not stated) | – | inactive: 2.35%

The listing continues.

Compound | Potency | activity change, negative = inhibition
O=c1cc(CNc2ccc(Br)cc2)nc2sccn12 | inconclusive: 2.51 µM [activator, partial curve, poor fit] | –
CCOC(=O)Cn1nc(C)c2ccccc2c1=O | inactive | –
CCOC(=O)c1c(/N=C/N(C)C)sc(/C=N/Nc2ccccc2)c1-c1ccccc1Cl | inconclusive: 10 µM [inhibitor, partial curve, poor fit] | –
O=C(CCCCCn1c(=O)[nH]c2ccsc2c1=O)NCc1ccccc1 | inconclusive: 12.6 µM [activator, partial curve, poor fit] | –
CCn1c(SCc2ccccc2)nnc1C1CCCCC1 | inconclusive: 1.41 µM [activator, full curve, poor fit] | –
CCCn1c(SCC(=O)NC2CCCCC2)nnc1-c1ccco1 | – | inactive: 11.7% [at 46.1 µM]
COCCSc1nnc(NC(=O)C(C)(C)C)s1 | – | inactive: -0.858%
COCCNC(=O)c1ccc(CS(=O)(=O)c2ccccc2OC)o1 | inconclusive: 5.62 µM [inhibitor, single point] | –
CNC(=S)Nc1cccc(C(=O)O)c1 | – | inactive: 1.87%
O=C(NCc1ccc(Cl)cc1)C1CCN(C(=O)c2cnn(-c3ccccc3)c2-n2cccc2)CC1 | inconclusive: 7.94 µM [inhibitor, partial curve, poor fit] | –
CCN(CC(=O)NC(C)C)C(=O)Cc1ccc(C)c(C)c1 | inconclusive: 2.82 µM [activator, partial curve, poor fit] | –
CN(C)CCNc1nc2sc3c(c2c(=O)n1-c1ccccc1)CCCCC3 | inconclusive: 35.5 µM [inhibitor, single point] | –
COc1ccc(N2CCN(CC(O)COc3ccc4c(c3)CCC4)CC2)cc1 (configuration not stated) | inconclusive: 35.5 µM [inhibitor, single point] | –
CCn1c(SCC(=O)Nc2nc(C)cs2)nnc1-c1ccncc1 | – | inactive: 17.6% [at 46.1 µM]
CN(C)S(=O)(=O)c1ccc(NC(=O)CN2CCN(c3ccccn3)CC2)cc1 | inconclusive: 11.2 µM [activator, partial curve] | –
Cc1ccc(NCc2nnc(SCC(=O)NCc3ccco3)n2CC2CCCO2)cc1Cl (configuration not stated) | inactive | –
COc1cccc(CN2C(=O)c3ccccc3C2C(=O)NCCc2ccccc2)c1 (configuration not stated) | inconclusive: 10 µM [inhibitor, partial curve, poor fit] | –
COc1ccccc1C=CC(=O)C=Cc1ccccc1OC | inconclusive: 7.08 µM [inhibitor, full curve, poor fit] | –
CCOc1cc2[nH]c(=O)n(CCCCC(=O)NC3CCCCCC3)c(=O)c2cc1OCC | – | inactive: -2.61%
CCN(CC(=O)NCc1ccc(Cl)cc1)C(=O)COc1ccc(Cl)cc1Br | inconclusive: 1.26 µM [inhibitor, single point] | –
COc1ccc(CC(=O)Nc2nc(C)cs2)cc1 | inconclusive: 5.62 µM [activator, single point] | –
Cc1ccc(S(=O)(=O)n2cc(CO)c3ccccc32)cc1 | – | inactive: -26.5% [at 46.1 µM]
Cn1c(-c2sccc2OCc2ccccc2)n[nH]c1=S | – | inactive: -3.28%
Cc1ccc(S(=O)(=O)N2CCN(CC(=O)Nc3ccccc3C(=O)NC3CC3)CC2)cc1 | inconclusive: 6.31 µM [inhibitor, single point] | –

Compound | Potency | activity change, negative = inhibition
N#Cc1nc(-c2ccco2)oc1N1CCc2ccccc2C1 | inconclusive: 4.11 µM [activator, single point] | –
Cc1cc(NC(=O)C23CC4CC(CC(C4)C2)C3)n[nH]1 | inconclusive: 3.16 µM [activator, partial curve, poor fit] | –
COc1ccc(OC(C)C(=O)N(C)Cc2nc(-c3ccc(OC)cc3)no2)cc1 (configuration not stated) | – | inactive: -11.2% [at 46.1 µM]
Cc1ccc(S(=O)(=O)NCC(=O)OCN2C(=O)c3ccccc3C2=O)cc1 | inconclusive: 31.6 µM [activator, single point] | –
Cc1ccc2cc(CN(CCN3CCCC3)C(=O)Nc3ccc(F)cc3)c(=O)[nH]c2c1C | inconclusive: 12.6 µM [inhibitor, single point] | –
Cc1cc(C(N)=O)c2ccccc2n1 | – | inactive: 4.49%
COc1cccc(CCC(=O)O)c1OC | inconclusive: 2.82 µM [activator, single point] | –
Cn1c(-c2cccc(Br)c2)cnc1NCc1cccc(F)c1 | inconclusive: 11.2 µM [inhibitor, single point] | –
O=C(C1CCN(S(=O)(=O)c2c(Cl)cccc2Cl)CC1)N1CCCC1 | – | inactive: 5.48%
COc1ccc(S(=O)(=O)NCC(=O)Nc2ccc3c(c2)OCCO3)cc1OC | – | inactive: -13.5% [at 46.1 µM]
CCCc1nc2ccccc2c(=O)n1/N=C/c1ccccc1O | inconclusive: 35.5 µM [inhibitor, single point] | –
CCc1ccccc1NC(=O)c1nc2nc(C)cc(C(F)F)n2n1 | – | inactive: -18.2% [at 46.1 µM]
CN=c1scc(-c2cc(OC)ccc2OC)n1/N=C/c1c(C)[nH]c2ccccc12 | inconclusive: 35.5 µM [inhibitor, single point] | –
CCN(CC)S(=O)(=O)c1ccc2c(c1)c(=O)c(C(=O)N1CCN(c3ccc(OC)cc3)CC1)cn2C | – | inactive: 9.01% [at 46.1 µM]
Cc1ccnc(SCc2ccc([N+](=O)[O-])cc2)n1 | – | inactive: 25.8% [at 46.1 µM]
CCOC(=O)N/N=C(\C)c1ccc(Br)cc1 | inconclusive: 8.2 µM [activator, partial curve] | –
COc1cccc(-c2nn(-c3ccccc3)cc2C(=O)OCC(=O)Nc2ncc(Cl)cc2Cl)c1 | – | inactive: -25.2%
CC(C)N1CCC(N2CCN(C/C=C/c3ccc(F)cc3)CC2CCO)CC1 (configuration not stated) | inconclusive: 7.08 µM [inhibitor, partial curve, poor fit] | –
CO/N=C/CC(=O)c1ccc(-c2ccccc2)cc1 | – | inactive: -6.31% [at 46.1 µM]
Cc1onc(-c2c(F)cccc2Cl)c1C(=O)OCC(=O)c1c[nH]c2ccccc12 | inconclusive: 20 µM [inhibitor, partial curve, poor fit] | –
N#Cc1c(C(F)(F)F)cc(-c2cccs2)nc1SCC(=O)Nc1cccc(Br)c1 | – | inactive: -20.4% [at 46.1 µM]
CCC(c1nnnn1Cc1ccccc1)N1CCN(c2ccccc2)CC1 (configuration not stated) | inconclusive: 12.6 µM [inhibitor, partial curve, poor fit] | –
CCOc1ccc(-c2cc(NC(=O)Nc3ccccc3Cl)c(C(=O)OC)s2)cc1 | inconclusive: 14.1 µM [activator, partial curve, poor fit] | –
CCOC(=O)N1CCN(C/C(Cl)=C/c2ccccc2)CC1 | – | inactive: 21.5%
